One assay has as its target T1, TKTL1^ΔD-box (human) (UniProt P51854).
T1 sequence: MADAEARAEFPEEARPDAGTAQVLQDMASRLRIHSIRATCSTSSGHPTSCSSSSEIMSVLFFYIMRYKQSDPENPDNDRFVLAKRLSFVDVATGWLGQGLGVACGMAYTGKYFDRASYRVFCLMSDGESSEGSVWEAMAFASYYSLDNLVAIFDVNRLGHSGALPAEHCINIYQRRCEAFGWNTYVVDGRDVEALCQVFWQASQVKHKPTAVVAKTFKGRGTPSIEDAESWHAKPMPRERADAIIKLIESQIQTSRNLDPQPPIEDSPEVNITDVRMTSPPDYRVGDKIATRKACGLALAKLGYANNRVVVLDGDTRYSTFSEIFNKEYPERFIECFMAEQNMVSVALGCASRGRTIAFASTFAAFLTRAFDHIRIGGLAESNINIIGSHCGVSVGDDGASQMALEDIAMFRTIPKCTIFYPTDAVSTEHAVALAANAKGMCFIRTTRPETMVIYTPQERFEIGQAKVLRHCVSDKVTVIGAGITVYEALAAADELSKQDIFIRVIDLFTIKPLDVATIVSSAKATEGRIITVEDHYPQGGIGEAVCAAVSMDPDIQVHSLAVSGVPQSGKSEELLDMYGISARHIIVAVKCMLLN
The experiment in a line: co-IP; HeLa cells (for CDH1 with β-TRCP1 also TKTL1 KO HeLa cells), with or without R5P supplementation; lysis in 0.5% NP-40 buffer (50 mM Tris-HCl pH 7.5, 150 mM NaCl); Flag beads at 4 °C overnight.

Sequences of proteins named here, by UniProt entry; tags and fusion partners are left off.
UniProt Q9UM11: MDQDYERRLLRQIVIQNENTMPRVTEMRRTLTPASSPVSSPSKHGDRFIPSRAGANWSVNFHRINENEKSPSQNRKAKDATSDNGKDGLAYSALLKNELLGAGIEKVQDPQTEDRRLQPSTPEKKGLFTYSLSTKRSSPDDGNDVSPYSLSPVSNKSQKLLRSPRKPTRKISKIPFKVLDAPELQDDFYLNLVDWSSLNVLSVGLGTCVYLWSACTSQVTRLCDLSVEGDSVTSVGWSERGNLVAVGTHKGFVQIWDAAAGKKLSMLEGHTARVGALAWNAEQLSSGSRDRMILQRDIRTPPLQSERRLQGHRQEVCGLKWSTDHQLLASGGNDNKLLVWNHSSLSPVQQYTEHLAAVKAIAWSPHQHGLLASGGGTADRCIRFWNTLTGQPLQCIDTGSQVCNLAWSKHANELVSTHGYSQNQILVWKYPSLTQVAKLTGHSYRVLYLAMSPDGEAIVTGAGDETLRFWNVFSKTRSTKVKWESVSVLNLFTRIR
UniProt Q9Y297: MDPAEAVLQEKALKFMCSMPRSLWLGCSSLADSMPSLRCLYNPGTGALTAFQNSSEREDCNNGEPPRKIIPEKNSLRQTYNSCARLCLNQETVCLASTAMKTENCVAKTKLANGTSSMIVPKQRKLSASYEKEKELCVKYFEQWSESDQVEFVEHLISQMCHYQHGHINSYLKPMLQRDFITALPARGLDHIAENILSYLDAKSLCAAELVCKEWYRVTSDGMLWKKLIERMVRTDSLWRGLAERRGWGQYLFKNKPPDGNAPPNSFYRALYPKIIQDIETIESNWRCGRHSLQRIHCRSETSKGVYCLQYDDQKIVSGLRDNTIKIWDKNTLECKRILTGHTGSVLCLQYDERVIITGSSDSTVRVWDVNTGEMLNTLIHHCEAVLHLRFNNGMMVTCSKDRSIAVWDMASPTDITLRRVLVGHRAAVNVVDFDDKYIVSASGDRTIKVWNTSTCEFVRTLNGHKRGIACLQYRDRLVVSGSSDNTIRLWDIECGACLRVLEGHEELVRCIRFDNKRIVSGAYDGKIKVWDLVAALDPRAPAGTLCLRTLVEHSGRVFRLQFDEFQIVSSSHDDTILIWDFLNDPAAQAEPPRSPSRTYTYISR

The target in assay [1] is T2, transketolase-like-1 (TKTL1) (human) (UniProt P51854).
T2 sequence: T1 sequence with A18R, A21L
The experiment in a line: pull-down; in vitro; proteins purified from HeLa cells; Flag-tagged protein captured on Flag beads incubated at 4 °C overnight with Myc-tagged protein eluted by peptide from protein A beads; washed with 0.1% NP-40 buffer; with or without R5P; both purified.

A further assay deals with T3, TKTL1^ΔSGS (human) (UniProt P51854).
T3 sequence: T1 sequence with A18R, A21L, S564A, G565A
In words: co-IP; HeLa cells (for CDH1 with β-TRCP1 also TKTL1 KO HeLa cells), with or without R5P supplementation; lysis in 0.5% NP-40 buffer (50 mM Tris-HCl pH 7.5, 150 mM NaCl); Flag beads at 4 °C overnight.

Assay [2] deals with T2, transketolase-like-1 (TKTL1) (human). Described as above.
Assay [3] concerns the target cell division cycle 20-like protein 1 (CDH1) (UniProt Q9UM11). The description is as above.
Assay [4] addresses T4, pyruvate dehydrogenase E1 subunit alpha 1 (PDHA1)-Flag (UniProt P08559).
T4 sequence: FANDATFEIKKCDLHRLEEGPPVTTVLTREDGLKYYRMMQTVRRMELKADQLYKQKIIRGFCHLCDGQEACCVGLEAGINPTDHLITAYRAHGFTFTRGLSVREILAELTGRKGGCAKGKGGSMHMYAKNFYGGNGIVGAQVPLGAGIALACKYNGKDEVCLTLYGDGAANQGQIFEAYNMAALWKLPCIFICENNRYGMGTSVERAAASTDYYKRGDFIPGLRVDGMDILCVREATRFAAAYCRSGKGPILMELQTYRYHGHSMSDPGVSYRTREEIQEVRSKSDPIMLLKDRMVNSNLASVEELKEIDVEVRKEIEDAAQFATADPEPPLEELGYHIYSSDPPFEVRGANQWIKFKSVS
The experiment in a line: co-IP; cells co-expressing PDHA1-Flag and PDHB-Myc lysed in 0.1% NP-40 buffer; PDHA1 precipitated with Flag beads; PDHB quantified by western blot with anti-Myc tag antibody.

Changes are numbered by the printed parent chain. No constants are given. Whether binding was seen depends on the method and setting. For part of these data: In cells and extracts the contact can be indirect. Some entries that bind do so weakly or less than the wild type. For part of these data: Sequences can lack the tags named with a protein.

From paper PMC12713023, “CDH1 Orchestrates Anabolic Events to Promote Cell Cycle Initiation” (Advanced Science, 2025) come the findings set out here.

Take “cell division cycle 20-like protein 1 (CDH1) (from UniProt Q9UM11 1-496)”: the binding result with TKTL1^ΔD-box (human) is “binds”.

Take “β-transducin repeat-containing protein 1 (β-TRCP1) (from UniProt Q9Y297 1-605)”: the binding entry (in assay [1]; with TKTL1^ΔSGS (human); in assay [2]) was “binds” each time.

B1: endogenous TKTL1 (protein, UniProt P51854 1-596)
chain: T1 sequence with A18R, A21L
On to B1, for which the binding entry in assay [3] is “binds”.

B2: PDHB-Myc (protein, UniProt P11177 31-359)
chain: LQVTVRDAINQGMDEELERDEKVFLLGEEVAQYDGAYKVSRGLWKKYGDKRIIDTPISEMGFAGIAVGAAMAGLRPICEFMTFNFSMQAIDQVINSAAKTYYMSGGLQPVPIVFRGPNGASAGVAAQHSQCFAAWYGHCPGLKVVSPWNSEDAKGLIKSAIRDNNPVVVLENELMYGVPFEFPPEAQSKDFLIPIGKAKIERQGTHITVVSHSRPVGHCLEAAAVLSKEGVECEVINMRTIRPMDMETIEASVMKTNHLVTVEGGWPQFGVGAEICARIMEGPAFNFLDAPAVRVTGADVPMPYAKILEDNSIPQVKDIIFAIKKTLNI
As to B2, the binding entry in assay [4] is “binds”.
